PubChem BioAssay AID1259425, University of Nebraska Medical Center | 2018
The deposit covers about 14,000 reagents; shown is a random part of them. Reagent sequences are not shown. Not given: the time to read-out.

- Purpose: 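Compare each knockdown with KSR1 silencing using changes in marker transcripts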 (primary screen)
- Cell system: HCT116 human colon cancer cells
- Reagents: siRNA pool against human genes, 50 nM siRNA
- Measured: 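After 50 nM siRNA pool, branched-DNA assay measures six marker transcripts per well, minus blank, normalised to the geometric mean of two housekeeping transcripts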
- Reading the numbers: BNIP3L mRNA: higher = more BNIP3L transcript after knockdown; NDRG1 mRNA: higher = more NDRG1 transcript after knockdown; BNIP3 mRNA: higher = more BNIP3 transcript after knockdown; ALDOC mRNA: higher = more ALDOC transcript after knockdown; ACSL5 mRNA: higher = more ACSL5 transcript after knockdown

gene	PubChem SID	BNIP3L mRNA, set 1	NDRG1 mRNA, set 1	BNIP3 mRNA, set 1	ALDOC mRNA, set 1	ACSL5 mRNA, set 1
LOC84843 (retired record)	SID364005606	0.109	0.128	0.345	0.0658	0.0979
ERCC1 (ERCC excision repair 1, endonuclease non-catalytic subunit)	SID363993195	0.127	0.698	0.262	0.0118	0.273
COBLL1 (cordon-bleu WH2 repeat protein like 1)	SID363999182	0.0901	0.0695	0.267	0.0103	0.0898
PCP4 (Purkinje cell protein 4)	SID363997024	0.0638	0.351	0.22	0.0197	0.181
PMPCA (peptidase, mitochondrial processing subunit alpha)	SID363999336	0.0711	0.331	0.254	0.00931	0.273
MRPL20 (mitochondrial ribosomal protein L20)	SID364000679	0.164	0.0768	0.317	0.0336	0.0762
MNS1 (meiosis specific nuclear structural 1)	SID364001009	0.125	0.312	0.385	0.0474	0.174
GAS7 (growth arrest specific 7)	SID363994719	0.0992	0.125	0.262	0.017	0.0691
CERCAM (cerebral endothelial cell adhesion molecule)	SID363999926	0.0991	0.122	0.25	0.0141	0.129
COX7C (cytochrome c oxidase subunit 7C)	SID363993080	0.117	0.327	0.371	0.0416	0.249
UROD (uroporphyrinogen decarboxylase)	SID363991705	0.0882	0.164	0.239	0.0233	0.11
ZKSCAN8 (zinc finger with KRAB and SCAN domains 8)	SID363997120	0.143	0.194	0.432	0.0565	0.18
MIER1 (MIER1 transcriptional regulator)	SID364001908	0.145	0.101	0.28	0.0102	0.185
SLC22A8	SID363995251	0.0867	0.2	0.129	0.0314	0.122
ZNF337 (zinc finger protein 337)	SID363999627	0.192	0.484	0.521	0.0479	0.198
GPR61 (G protein-coupled receptor 61)	SID364003708	0.199	0.125	0.211	0.0718	0.129
SLC17A4	SID363996397	0.169	0.788	0.262	0.0254	0.0884
TP73 (tumor protein p73)	SID363996333	0.0606	0.0641	0.304	0.00781	0.163
CHD5 (chromodomain helicase DNA binding protein 5)	SID363999571	0.172	0.57	0.494	0.0532	0.222
PTPN6 (protein tyrosine phosphatase non-receptor type 6)	SID363993987	0.099	0.111	0.336	0.0202	0.211
MYG1 (MYG1 exonuclease)	SID364002163	0.253	0.461	0.355	0.0456	0.182
GAMT (guanidinoacetate N-methyltransferase)	SID363991492	0.115	0.0692	0.167	0.0263	0.162
FAM89B (family with sequence similarity 89 member B)	SID364004746	0.141	0.178	0.417	0.0555	0.133
OR7C2 (olfactory receptor family 7 subfamily C member 2)	SID363998267	0.137	0.122	0.245	0.0564	0.234
KLHL22 (kelch like family member 22)	SID364004162	0.117	0.142	0.259	0.0323	0.095
FARSB (phenylalanyl-tRNA synthetase subunit beta)	SID363996577	0.208	0.138	0.322	0.0925	0.327
ALDH9A1 (aldehyde dehydrogenase 9 family member A1)	SID363991995	0.166	0.128	0.242	0.0118	0.141
ZIC4 (Zic family zinc finger 4)	SID364003808	0.131	0.134	0.331	0.124	0.31
RRAGD (Ras related GTP binding D)	SID364002122	0.0714	0.078	0.227	0.0136	0.12
MSLN (mesothelin)	SID363996698	0.0938	0.253	0.317	0.0155	0.156
ZNF354A (zinc finger protein 354A)	SID363996542	0.0891	0.138	0.126	-0.00282	0.143
ZNF318 (zinc finger protein 318)	SID363998772	0.167	0.316	0.469	0.0252	0.372
SOCS3 (suppressor of cytokine signaling 3)	SID363995010	0.0892	0.0976	0.272	0.0117	0.215
DOCK2 (dedicator of cytokinesis 2)	SID363995888	0.0598	0.137	0.278	0.0203	0.134
THBS4 (thrombospondin 4)	SID363994369	0.246	0.622	0.342	0.0577	0.151
FGF2 (fibroblast growth factor 2)	SID363993218	0.11	0.149	0.21	0.0351	0.11
EMSY (EMSY transcriptional repressor, BRCA2 interacting)	SID364001546	0.159	0.279	0.314	0.0584	0.277
LOC83459 (retired record)	SID364003586	0.642	0.547	0.449	0.213	0.643
TAS2R38 (taste 2 receptor member 38)	SID364004882	0.0441	0.0895	0.283	0.0273	0.139
PCK1 (phosphoenolpyruvate carboxykinase 1)	SID363993760	0.0763	0.19	0.269	0.000162	0.224
EGFL6 (EGF like domain multiple 6)	SID363999537	0.241	0.192	0.293	0.0265	0.2
ARSF (arylsulfatase F)	SID363995052	0.108	0.164	0.21	0.0262	0.105
GRM1 (glutamate metabotropic receptor 1)	SID363992125	0.103	0.151	0.303	0.0211	0.124
AIG1 (androgen induced 1)	SID363999878	0.0447	0.226	0.283	0.0367	0.129
DGKD (diacylglycerol kinase delta)	SID363994723	0.0828	0.173	0.242	0.0164	0.193
CDK17 (cyclin dependent kinase 17)	SID363993764	0.116	0.124	0.34	0.0133	0.219
VPS13C (vacuolar protein sorting 13 homolog C)	SID364000446	0.0789	0.0785	0.242	0.0114	0.167
CYTH3 (cytohesin 3)	SID363995226	0.112	0.216	0.31	0.0355	0.16
RHOH (ras homolog family member H)	SID363995302	0.0752	0.0661	0.297	0.00273	0.203
IQCE (IQ motif containing E)	SID364004727	0.118	0.181	0.42	0.0379	0.0876

Ordered by “ACSL5 mRNA, set 1” (high to low): 5 of the entries above.
gene	PubChem SID	BNIP3L mRNA, set 1	NDRG1 mRNA, set 1	BNIP3 mRNA, set 1	ALDOC mRNA, set 1	ACSL5 mRNA, set 1
COX7C (cytochrome c oxidase subunit 7C)	SID363993080	0.117	0.327	0.371	0.0416	0.249
MIER1 (MIER1 transcriptional regulator)	SID364001908	0.145	0.101	0.28	0.0102	0.185
ZKSCAN8 (zinc finger with KRAB and SCAN domains 8)	SID363997120	0.143	0.194	0.432	0.0565	0.18
SLC22A8	SID363995251	0.0867	0.2	0.129	0.0314	0.122
UROD (uroporphyrinogen decarboxylase)	SID363991705	0.0882	0.164	0.239	0.0233	0.11
